The results in this text go back to paper PMC4482076.

The chains behind the UniProt entries cited, without tags or fusion partners.
UniProt P38919: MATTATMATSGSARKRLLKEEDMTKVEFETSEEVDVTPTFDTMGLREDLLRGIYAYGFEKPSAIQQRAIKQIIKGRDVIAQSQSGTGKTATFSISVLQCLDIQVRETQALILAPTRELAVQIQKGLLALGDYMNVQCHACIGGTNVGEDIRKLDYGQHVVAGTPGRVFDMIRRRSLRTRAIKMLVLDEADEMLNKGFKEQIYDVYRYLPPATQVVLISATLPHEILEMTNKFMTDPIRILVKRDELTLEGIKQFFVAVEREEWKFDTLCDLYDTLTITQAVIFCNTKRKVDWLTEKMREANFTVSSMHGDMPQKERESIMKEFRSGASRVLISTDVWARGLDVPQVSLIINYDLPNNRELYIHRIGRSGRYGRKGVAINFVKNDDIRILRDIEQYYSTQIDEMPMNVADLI

Positions count from the first letter of the chain named. These are yes or no findings as the source states them, for the method shown. In cells and extracts the contact can be indirect. Some entries that bind do so weakly or less than the wild type. Where a sequence is shown, tags or fusion partners need not be part of it.

What all share (assay): co-IP; FLAG complexes immunoprecipitated with M2 anti-FLAG magnetic beads from RNase A (50 μg/ml) treated HEK293 cell lysates; lysis buffer 50 mM Tris pH 7.2, 150 mM NaCl, 0.5% Triton X-100; beads washed 3x; co-precipitated endogenous eIF4A3 detected by immunoblot
Background: In western blotting, separated proteins are transferred to a membrane and probed.

For experiment [1], the target named is T1, FLAG-CWC22 (N171D/K172E) (human) (UniProt Q9HCG8).
T1 sequence: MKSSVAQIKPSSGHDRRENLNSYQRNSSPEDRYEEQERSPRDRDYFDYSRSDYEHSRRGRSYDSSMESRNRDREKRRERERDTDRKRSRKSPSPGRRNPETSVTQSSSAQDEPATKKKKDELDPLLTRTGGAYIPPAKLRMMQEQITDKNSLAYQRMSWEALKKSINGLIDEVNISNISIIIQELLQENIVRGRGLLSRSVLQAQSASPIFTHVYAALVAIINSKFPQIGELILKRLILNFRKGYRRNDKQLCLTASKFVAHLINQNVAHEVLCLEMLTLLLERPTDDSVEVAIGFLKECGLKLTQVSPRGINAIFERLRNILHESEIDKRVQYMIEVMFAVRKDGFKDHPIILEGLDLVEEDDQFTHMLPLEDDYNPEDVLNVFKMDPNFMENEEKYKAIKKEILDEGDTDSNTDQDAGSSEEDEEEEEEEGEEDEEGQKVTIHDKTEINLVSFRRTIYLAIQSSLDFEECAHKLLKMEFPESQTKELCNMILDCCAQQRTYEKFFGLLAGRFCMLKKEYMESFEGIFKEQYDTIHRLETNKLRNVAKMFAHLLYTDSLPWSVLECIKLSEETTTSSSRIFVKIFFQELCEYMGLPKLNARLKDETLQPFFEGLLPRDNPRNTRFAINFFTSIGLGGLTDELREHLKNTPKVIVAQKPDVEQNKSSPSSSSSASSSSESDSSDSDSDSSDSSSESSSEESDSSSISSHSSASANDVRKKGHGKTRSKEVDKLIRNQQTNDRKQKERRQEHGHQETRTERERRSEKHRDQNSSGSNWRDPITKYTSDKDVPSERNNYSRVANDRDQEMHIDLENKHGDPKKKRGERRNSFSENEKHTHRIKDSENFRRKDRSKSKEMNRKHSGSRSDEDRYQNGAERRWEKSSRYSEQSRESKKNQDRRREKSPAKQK

For experiment [2], the target named is T2, FLAG-CWC22 (Y133E/R140E) (human) (UniProt Q9HCG8).
T2 sequence: T1 sequence with Y133E, R140E, D171N, E172K

The target of experiment [3] is T3, FLAG-CWC22 (wild type) (human) (UniProt Q9HCG8).
T3 sequence: T1 sequence with D171N, E172K

For “endogenous eIF4A3 (from UniProt P38919 1-411)”, the binding result in experiment [1] was “no binding”; in experiment [2], “no binding”; in experiment [3], “binds”.
